# This is one part of the list.
# B1: Epa20 (Candida glabrata) (protein)
# chain: MGSSHHHHHHSSGLVPRGSHMASSNIPNNYPLGCSNKYSGHLPGLKMELYSYNYVNPRHPDPQNPGKLDQLYDPNLLGTYECFDSSYKDINYPRVGYKSKTLIGRSDGVSGILNFNFVPPWGCMPQKGQLPPAYNFKSNITLSNFTMILFGYFKPKISGNHIFSLHGDDLIYLNFGAGNAFDCCRQESSADNFGNYQAFSLWGINWEKKTLTVYLDMNTYYPIRIFYNNRDYQAIFNFSFKTEFDSSPVIDFQDYFFFLRDIDGGCPGEV
# Columns and labels:
# Experiment in all cases: glycan array binding signal (z-score within array); higher = stronger binding
# Conditions in all cases: glycan notation: IUPAC condensed, linker removed
# GalNAc(b1-4)GlcNAc = target: GalNAc(b1-4)GlcNAc
# Method in brief: (§1)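 The binding signal is a Z-score computed within each array. Data were drawn from 3228 arrays in the Consortium for Functional Glycomics database, restricted to those with a known protein sequence. Scores were averaged over arrays of the same protein sequence at different concentrations or buffers, and over linkers, and negative values can be taken as non-binding.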
# [1] = target: GalNAc(b1-4)GlcNAc(b1-2)Man
# Method in brief: as §1
# [2] = target: GalNAc(b1-4)GlcNAc(b1-2)Man(a1-3)[GalNAc(b1-4)GlcNAc(b1-2)Man(a1-6)]Man(b1-4)GlcNAc(b1-4)GlcNAc
# Method in brief: as §1
# [3] = target: GalNAc(b1-4)GlcNAc(b1-3)GalNAc(b1-4)GlcNAc
# Method in brief: as §1
# GalNAc(b1-4)GlcNAc6S = target: GalNAc(b1-4)GlcNAc6S
# Method in brief: as §1
# GalNAc(b1-6)GalNAc = target: GalNAc(b1-6)GalNAc
# Method in brief: as §1
# GalNAc3S(b1-4)GlcNAc = target: GalNAc3S(b1-4)GlcNAc
# Method in brief: as §1
# GalNAc3S(b1-4)GlcNAc3S = target: GalNAc3S(b1-4)GlcNAc3S
# Method in brief: as §1
# [4] = target: GalNAc3S(b1-4)[Fuc(a1-3)]GlcNAc
# Method in brief: as §1
# GalNAc4S6S(b1-4)GlcNAc = target: GalNAc4S6S(b1-4)GlcNAc
# Method in brief: as §1
# GalNAc6S(b1-4)GlcNAc = target: GalNAc6S(b1-4)GlcNAc
# Method in brief: as §1
# Glc(a1-4)Glc = target: Glc(a1-4)Glc
# Method in brief: as §1
# [5] = target: Glc(a1-4)Glc(a1-4)Glc(a1-4)Glc
# Method in brief: as §1
# Glc(a1-6)Glc(a1-6)Glc = target: Glc(a1-6)Glc(a1-6)Glc
# Method in brief: as §1
# [6] = target: Glc(a1-6)Glc(a1-6)Glc(a1-6)Glc
# Method in brief: as §1
# Glc(b1-4)Glc = target: Glc(b1-4)Glc
# Method in brief: as §1
# Glc(b1-6)Glc = target: Glc(b1-6)Glc
# Method in brief: as §1
# GlcA(b1-3)Gal = target: GlcA(b1-3)Gal
# Method in brief: as §1
# GlcA(b1-3)GlcNAc = target: GlcA(b1-3)GlcNAc
# Method in brief: as §1
# GlcA(b1-6)Gal = target: GlcA(b1-6)Gal
# Method in brief: as §1
# [7] = target: GlcA3S(b1-3)Gal(b1-4)GlcNAc(b1-2)Man
# Method in brief: as §1
# [8] = target: GlcA3S(b1-3)Gal(b1-4)GlcNAc(b1-3)Gal(b1-4)Glc
# Method in brief: as §1
# [9] = target: GlcNAc(a1-3)Gal(b1-4)GlcNAc
# Method in brief: as §1
# [10] = target: GlcNAc(a1-4)Gal(b1-3)GlcNAc
# Method in brief: as §1
# [11] = target: GlcNAc(a1-4)Gal(b1-4)GalNAc
# Method in brief: as §1
# [12] = target: GlcNAc(a1-4)Gal(b1-4)GlcNAc
# Method in brief: as §1
# [13] = target: GlcNAc(a1-4)Gal(b1-4)GlcNAc(b1-3)Gal(b1-4)Glc
# Method in brief: as §1
# [14] = target: GlcNAc(a1-4)Gal(b1-4)GlcNAc(b1-3)Gal(b1-4)GlcNAc
# Method in brief: as §1
# [15] = target: GlcNAc(a1-4)Gal(b1-4)GlcNAc(b1-3)Gal(b1-4)GlcNAc(b1-3)Gal(b1-4)GlcNAc
# Method in brief: as §1
# [16] = target: GlcNAc(a1-4)Gal(b1-4)GlcNAc(b1-3)Gal(b1-4)[Fuc(a1-3)]GlcNAc(b1-3)Gal(b1-4)[Fuc(a1-3)]GlcNAc
# Method in brief: as §1
# [17] = target: GlcNAc(a1-6)Gal(b1-4)GlcNAc
# Method in brief: as §1
# [18] = target: GlcNAc(b1-2)Gal(b1-3)GalNAc
# Method in brief: as §1
# [19] = target: GlcNAc(b1-2)Man(a1-3)[GlcNAc(b1-2)Man(a1-6)]Man(b1-4)GlcNAc(b1-4)GlcNAc
# Method in brief: as §1
# [20] = target: GlcNAc(b1-2)Man(a1-3)[GlcNAc(b1-2)Man(a1-6)]Man(b1-4)GlcNAc(b1-4)[Fuc(a1-6)]GlcNAc
# Method in brief: as §1
# [21] = target: GlcNAc(b1-2)Man(a1-3)[GlcNAc(b1-4)][GlcNAc(b1-2)Man(a1-6)]Man(b1-4)GlcNAc(b1-4)GlcNAc
# Method in brief: as §1
# [22] = target: GlcNAc(b1-2)Man(a1-3)[GlcNAc(b1-4)][GlcNAc(b1-2)Man(a1-6)]Man(b1-4)GlcNAc(b1-4)[Fuc(a1-6)]GlcNAc
# Method in brief: as §1
# [23] = target: GlcNAc(b1-2)[GlcNAc(b1-4)]Man(a1-3)[GlcNAc(b1-2)Man(a1-6)]Man(b1-4)GlcNAc(b1-4)GlcNAc
# Method in brief: as §1
# [24] = target: GlcNAc(b1-2)[GlcNAc(b1-4)]Man(a1-3)[GlcNAc(b1-4)][GlcNAc(b1-2)Man(a1-6)]Man(b1-4)GlcNAc(b1-4)GlcNAc
# Method in brief: as §1
# [25] = target: GlcNAc(b1-2)[GlcNAc(b1-4)]Man(a1-3)[GlcNAc(b1-4)][GlcNAc(b1-2)[GlcNAc(b1-6)]Man(a1-6)]Man(b1-4)GlcNAc(b1-4)GlcNAc
# Method in brief: as §1
# [26] = target: GlcNAc(b1-2)[GlcNAc(b1-4)]Man(a1-3)[GlcNAc(b1-4)][GlcNAc(b1-2)[GlcNAc(b1-6)]Man(a1-6)]Man(b1-4)GlcNAc(b1-4)[Fuc(a1-6)]GlcNAc
# Method in brief: as §1
# [27] = target: GlcNAc(b1-2)[GlcNAc(b1-6)]Man(a1-6)[GlcNAc(b1-2)Man(a1-3)]Man(b1-4)GlcNAc(b1-4)GlcNAc
# Method in brief: as §1
# [28] = target: GlcNAc(b1-2)[GlcNAc(b1-6)]Man(a1-6)[GlcNAc(b1-2)Man(a1-3)]Man(b1-4)GlcNAc(b1-4)[Fuc(a1-6)]GlcNAc
# Method in brief: as §1
# [29] = target: GlcNAc(b1-2)[GlcNAc(b1-6)]Man(a1-6)[GlcNAc(b1-4)][GlcNAc(b1-2)Man(a1-3)]Man(b1-4)GlcNAc(b1-4)GlcNAc
# Method in brief: as §1
# GlcNAc(b1-3)Fuc = target: GlcNAc(b1-3)Fuc
# Method in brief: as §1
# GlcNAc(b1-3)Gal = target: GlcNAc(b1-3)Gal
# Method in brief: as §1
binder,measurement,setting,value
B1,glycan array binding signal (z-score),GalNAc(b1-4)GlcNAc,0.037
same,glycan array binding signal (z-score),[1],-0.708
same,glycan array binding signal (z-score),[2],0.122
same,glycan array binding signal (z-score),[3],0.121
same,glycan array binding signal (z-score),GalNAc(b1-4)GlcNAc6S,0.979
same,glycan array binding signal (z-score),GalNAc(b1-6)GalNAc,-0.566
same,glycan array binding signal (z-score),GalNAc3S(b1-4)GlcNAc,0.176
same,glycan array binding signal (z-score),GalNAc3S(b1-4)GlcNAc3S,0.034
same,glycan array binding signal (z-score),[4],-0.146
same,glycan array binding signal (z-score),GalNAc4S6S(b1-4)GlcNAc,0.033
same,glycan array binding signal (z-score),GalNAc6S(b1-4)GlcNAc,0.304
same,glycan array binding signal (z-score),Glc(a1-4)Glc,-0.316
same,glycan array binding signal (z-score),[5],0.201
same,glycan array binding signal (z-score),Glc(a1-6)Glc(a1-6)Glc,-0.554
same,glycan array binding signal (z-score),[6],-0.223
same,glycan array binding signal (z-score),Glc(b1-4)Glc,-0.657
same,glycan array binding signal (z-score),Glc(b1-6)Glc,-0.84
same,glycan array binding signal (z-score),GlcA(b1-3)Gal,-0.651
same,glycan array binding signal (z-score),GlcA(b1-3)GlcNAc,0.119
same,glycan array binding signal (z-score),GlcA(b1-6)Gal,-0.289
same,glycan array binding signal (z-score),[7],-0.136
same,glycan array binding signal (z-score),[8],-0.269
same,glycan array binding signal (z-score),[9],-0.55
same,glycan array binding signal (z-score),[10],-0.724
same,glycan array binding signal (z-score),[11],0.06
same,glycan array binding signal (z-score),[12],-0.461
same,glycan array binding signal (z-score),[13],-0.477
same,glycan array binding signal (z-score),[14],-0.018
same,glycan array binding signal (z-score),[15],-0.453
same,glycan array binding signal (z-score),[16],0.435
same,glycan array binding signal (z-score),[17],-0.743
same,glycan array binding signal (z-score),[18],-0.506
same,glycan array binding signal (z-score),[19],-0.373
same,glycan array binding signal (z-score),[20],-0.287
same,glycan array binding signal (z-score),[21],-0.224
same,glycan array binding signal (z-score),[22],-0.626
same,glycan array binding signal (z-score),[23],-0.31
same,glycan array binding signal (z-score),[24],-0.435
same,glycan array binding signal (z-score),[25],-0.462
same,glycan array binding signal (z-score),[26],-0.455
same,glycan array binding signal (z-score),[27],-0.647
same,glycan array binding signal (z-score),[28],-0.537
same,glycan array binding signal (z-score),[29],-0.789
same,glycan array binding signal (z-score),GlcNAc(b1-3)Fuc,-0.013
same,glycan array binding signal (z-score),GlcNAc(b1-3)Gal,-0.753

# An excerpt of these results, as tab-separated lines.
binder	measurement	setting	value
B1	glycan array binding signal (z-score)	[1]	-0.708
same	glycan array binding signal (z-score)	[27]	-0.647

# From the supplement of paper PMC8728848
